In the supplement of paper PMC10849652:
Some of the results follow.

By UniProt entry, the sequences of proteins in these tests, tags left out. Where a name states a change or a piece, a line headed by the entry shows the natural chain unless it says otherwise.
UniProt P26038, whole entry, looked up: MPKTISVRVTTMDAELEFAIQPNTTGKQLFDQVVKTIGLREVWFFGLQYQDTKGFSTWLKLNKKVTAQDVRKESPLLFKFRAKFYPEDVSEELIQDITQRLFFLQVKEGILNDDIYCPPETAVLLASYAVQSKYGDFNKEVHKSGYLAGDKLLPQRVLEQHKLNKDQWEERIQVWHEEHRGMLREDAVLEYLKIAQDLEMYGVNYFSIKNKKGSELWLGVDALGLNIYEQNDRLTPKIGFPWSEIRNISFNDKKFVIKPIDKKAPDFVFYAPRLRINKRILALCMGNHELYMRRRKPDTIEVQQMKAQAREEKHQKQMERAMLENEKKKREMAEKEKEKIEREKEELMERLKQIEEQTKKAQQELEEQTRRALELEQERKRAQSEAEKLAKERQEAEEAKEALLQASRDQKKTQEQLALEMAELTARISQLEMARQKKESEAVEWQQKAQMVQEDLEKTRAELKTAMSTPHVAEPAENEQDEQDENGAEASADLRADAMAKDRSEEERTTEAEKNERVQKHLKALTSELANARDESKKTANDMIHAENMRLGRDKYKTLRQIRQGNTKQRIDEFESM
UniProt P60660, whole entry, looked up: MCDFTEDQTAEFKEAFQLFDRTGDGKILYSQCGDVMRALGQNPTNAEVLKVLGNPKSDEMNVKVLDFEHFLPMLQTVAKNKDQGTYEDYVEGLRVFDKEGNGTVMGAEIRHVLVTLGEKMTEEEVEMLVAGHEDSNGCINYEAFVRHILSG
UniProt Q9Y217: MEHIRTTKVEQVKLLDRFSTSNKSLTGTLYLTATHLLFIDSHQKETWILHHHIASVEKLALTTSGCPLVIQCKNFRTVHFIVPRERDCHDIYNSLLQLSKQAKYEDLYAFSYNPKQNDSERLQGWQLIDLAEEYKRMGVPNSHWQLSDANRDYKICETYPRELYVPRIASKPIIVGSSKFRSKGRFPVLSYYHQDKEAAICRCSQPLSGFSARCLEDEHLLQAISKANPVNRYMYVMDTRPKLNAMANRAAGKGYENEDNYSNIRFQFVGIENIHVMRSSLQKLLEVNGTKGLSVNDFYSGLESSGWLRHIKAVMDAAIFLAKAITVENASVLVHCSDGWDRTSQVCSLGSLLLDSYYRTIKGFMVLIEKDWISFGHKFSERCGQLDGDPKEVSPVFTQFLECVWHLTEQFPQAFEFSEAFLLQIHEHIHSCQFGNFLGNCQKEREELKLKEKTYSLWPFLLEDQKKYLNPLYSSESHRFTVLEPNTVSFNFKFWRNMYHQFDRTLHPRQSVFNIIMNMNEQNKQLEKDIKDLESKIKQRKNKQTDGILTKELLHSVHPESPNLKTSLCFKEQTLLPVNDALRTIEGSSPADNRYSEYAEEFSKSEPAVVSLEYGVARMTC
UniProt P58546, whole entry, looked up: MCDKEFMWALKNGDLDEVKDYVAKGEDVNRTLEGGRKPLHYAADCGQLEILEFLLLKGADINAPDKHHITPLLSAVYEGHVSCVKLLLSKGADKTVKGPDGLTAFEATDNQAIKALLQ
UniProt G3V1V0: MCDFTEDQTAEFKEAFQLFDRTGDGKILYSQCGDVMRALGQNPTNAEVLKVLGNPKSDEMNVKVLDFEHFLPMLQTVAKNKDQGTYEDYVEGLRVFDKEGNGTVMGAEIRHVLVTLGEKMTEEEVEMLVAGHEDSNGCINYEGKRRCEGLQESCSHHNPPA
UniProt Q9UDX5: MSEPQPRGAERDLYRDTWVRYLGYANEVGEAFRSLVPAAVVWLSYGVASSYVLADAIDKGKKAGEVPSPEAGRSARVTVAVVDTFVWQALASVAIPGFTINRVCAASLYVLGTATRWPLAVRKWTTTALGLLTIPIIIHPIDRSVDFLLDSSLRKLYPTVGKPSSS
UniProt Q9ULH7: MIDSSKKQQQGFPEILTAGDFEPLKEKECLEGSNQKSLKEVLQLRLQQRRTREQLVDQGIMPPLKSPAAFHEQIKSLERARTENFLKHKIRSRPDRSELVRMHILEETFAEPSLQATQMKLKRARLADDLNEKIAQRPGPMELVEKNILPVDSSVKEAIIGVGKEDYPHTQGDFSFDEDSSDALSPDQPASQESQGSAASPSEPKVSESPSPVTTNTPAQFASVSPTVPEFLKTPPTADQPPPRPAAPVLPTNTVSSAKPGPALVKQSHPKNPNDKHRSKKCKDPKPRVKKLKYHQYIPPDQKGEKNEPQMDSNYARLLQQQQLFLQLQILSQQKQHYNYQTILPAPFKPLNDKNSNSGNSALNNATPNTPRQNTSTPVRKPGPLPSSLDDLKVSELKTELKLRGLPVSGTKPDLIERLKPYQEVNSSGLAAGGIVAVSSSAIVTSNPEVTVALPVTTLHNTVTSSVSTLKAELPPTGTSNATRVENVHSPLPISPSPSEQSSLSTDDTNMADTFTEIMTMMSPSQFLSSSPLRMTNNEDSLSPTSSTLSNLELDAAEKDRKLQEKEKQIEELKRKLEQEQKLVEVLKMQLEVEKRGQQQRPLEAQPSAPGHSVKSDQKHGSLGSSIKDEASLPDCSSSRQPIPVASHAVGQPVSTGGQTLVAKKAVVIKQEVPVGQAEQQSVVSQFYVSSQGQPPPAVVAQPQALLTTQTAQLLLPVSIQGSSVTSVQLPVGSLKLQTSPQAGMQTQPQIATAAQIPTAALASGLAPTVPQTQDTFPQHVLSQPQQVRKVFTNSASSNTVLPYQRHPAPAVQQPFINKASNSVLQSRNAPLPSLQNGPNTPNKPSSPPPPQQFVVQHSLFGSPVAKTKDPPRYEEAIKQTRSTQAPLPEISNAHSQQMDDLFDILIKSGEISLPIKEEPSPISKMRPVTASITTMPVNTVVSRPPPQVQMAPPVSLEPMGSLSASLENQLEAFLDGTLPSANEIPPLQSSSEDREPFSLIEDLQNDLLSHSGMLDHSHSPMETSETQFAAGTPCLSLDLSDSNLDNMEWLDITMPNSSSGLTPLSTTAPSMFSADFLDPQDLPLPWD
UniProt O43347: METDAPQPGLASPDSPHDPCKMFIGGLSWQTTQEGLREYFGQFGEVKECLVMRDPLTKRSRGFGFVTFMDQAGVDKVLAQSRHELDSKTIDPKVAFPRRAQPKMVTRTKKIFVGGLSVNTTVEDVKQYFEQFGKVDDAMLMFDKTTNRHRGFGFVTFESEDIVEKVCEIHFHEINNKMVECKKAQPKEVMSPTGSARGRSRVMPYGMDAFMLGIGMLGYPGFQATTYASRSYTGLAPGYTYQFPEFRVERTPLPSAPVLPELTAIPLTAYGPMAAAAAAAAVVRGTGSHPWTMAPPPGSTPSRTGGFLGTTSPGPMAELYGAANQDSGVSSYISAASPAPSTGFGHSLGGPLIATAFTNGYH

How the values were obtained:
Assay in all cases: log2 fold change, soluble protein after heating vs DMSO (PISA); higher = thermal stabilisation; K562 cells, 10 uM, 30 min; active = over 0.2 and 3.5 SD of the protein, either way, in both replicates (recomputed)
saracatinib = compound: CN1CCN(CCOc2cc(OC3CCOCC3)c3c(Nc4c(Cl)ccc5c4OCO5)ncnc3c2)CC1 [saracatinib]
How it was run: (§1)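 K562 cells at 2×10^6 cells/mL were given 10 μM compound for 30 min. Aliquots then went through 3 min of heating across 48°C-58°C, were pooled, and were extracted in PBS with 0.5% NP-40 at 4°C, and the supernatant after 21,000xg for 90 min was quantified by TMTpro 16plex LC-MS/MS with channel sums equalised. Thermal stability relative to control samples, from duplicates, is given as log2 fold change.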

sotrastaurin = compound: CN1CCN(c2nc(C3=C(c4c[nH]c5ccccc45)C(=O)NC3=O)c3ccccc3n2)CC1 [sotrastaurin]
How it was run: as §1

Tubastatin A = compound: CN1CCc2c(c3ccccc3n2Cc2ccc(C(=O)NO)cc2)C1 [Tubastatin A]
How it was run: as §1

[1] = compound: CNC(=O)C1=CC=CC=C1NC2=NC(=NC=C2Cl)NC3=C(C=C(C=C3)N4CCOCC4)OC
How it was run: as §1

defactinib = compound: CNC(=O)c1ccc(Nc2ncc(C(F)(F)F)c(NCc3nccnc3N(C)S(C)(=O)=O)n2)cc1 [defactinib]
How it was run: as §1

rucaparib = compound: CNCc1ccc(-c2[nH]c3cc(F)cc4c3c2CCNC4=O)cc1 [rucaparib]
How it was run: as §1

[2] = compound: CNc1nc(-c2ccc3c(N)n[nH]c3c2)cc(N2C[C@@H](C(=O)NC3CCCCC3)CC[C@H]2C)n1
How it was run: as §1

encorafenib = compound: COC(=O)N[C@@H](C)CNc1nccc(-c2cn(C(C)C)nc2-c2cc(Cl)cc(NS(C)(=O)=O)c2F)n1 [encorafenib]
How it was run: as §1

[3] = compound: COC(=O)[C@H](CCSC)NC(=O)C1=C(C=C(C=C1)NC[C@H](CS)N)C2=CC=CC=C2
How it was run: as §1

[4] = compound: COC1=CC=C(C=C1)CN2C=CC3=C2C=C(C=C3)C(=O)NO
How it was run: as §1

filanesib = compound: CON(C)C(=O)N1N=C(c2cc(F)ccc2F)S[C@@]1(CCCN)c1ccccc1 [filanesib]
How it was run: as §1

zotarolimus = compound: CO[C@H]1C[C@@H]2CC[C@@H](C)[C@@](O)(O2)C(=O)C(=O)N2CCCC[C@H]2C(=O)O[C@H]([C@H](C)C[C@@H]2CC[C@H](n3cnnn3)[C@H](OC)C2)CC(=O)[C@H](C)/C=C(\C)[C@@H](O)[C@@H](OC)C(=O)[C@H](C)C[C@H](C)/C=C/C=C/C=C/1C [zotarolimus]
How it was run: as §1

idasanutlin = compound: COc1cc(C(=O)O)ccc1NC(=O)[C@@H]1N[C@@H](CC(C)(C)C)[C@](C#N)(c2ccc(Cl)cc2F)[C@H]1c1cccc(Cl)c1F [idasanutlin]
How it was run: as §1

alisertib = compound: COc1cc(Nc2ncc3c(n2)-c2ccc(Cl)cc2C(c2c(F)cccc2OC)=NC3)ccc1C(=O)O [alisertib]
How it was run: as §1

[5] = compound: COc1cc2nc(-c3cc(F)ccc3O)nc(N[C@@H]3CNC[C@H]3C(C)(C)O)c2cc1OC
How it was run: as §1

gefitinib = compound: COc1cc2ncnc(Nc3ccc(F)c(Cl)c3)c2cc1OCCCN1CCOCC1 [gefitinib]
How it was run: as §1

[6] = compound: COc1cccc2cc(-c3nc([C@H]4CC[C@H](C(=O)O)CC4)n4ncnc(N)c34)[nH]c12
How it was run: as §1

lapatinib = compound: CS(=O)(=O)CCNCc1ccc(-c2ccc3ncnc(Nc4ccc(OCc5cccc(F)c5)c(Cl)c4)c3c2)o1 [lapatinib]
How it was run: as §1

pictilisib = compound: CS(=O)(=O)N1CCN(Cc2cc3nc(-c4cccc5[nH]ncc45)nc(N4CCOCC4)c3s2)CC1 [pictilisib]
How it was run: as §1

alvocidib = compound: CN1CC[C@H](c2c(O)cc(O)c3c(=O)cc(-c4ccccc4Cl)oc23)[C@H](O)C1 [alvocidib]
How it was run: as §1

Measured: log2 fold change

MRPS25 (UniProt P82663)
inactive: saracatinib -0.097 | sotrastaurin -0.059 | Tubastatin A 0.084 | [1] -0.021 | defactinib -0.072 | rucaparib 0.129 | [2] 0.233 | encorafenib -0.016 | [3] -0.017 | [4] 0.066 | filanesib 0.029 | zotarolimus 0.053 | idasanutlin -0.185 | alisertib -0.038 | [5] -0.055 | gefitinib 0.058 | [6] -0.046 | lapatinib 0.08 | pictilisib 0.063

MUC1, A0A087WWM1
inactive: saracatinib 0.029 | sotrastaurin -0.03 | alvocidib -0.188 | Tubastatin A -0.099 | [1] -0.123 | defactinib 0.074 | rucaparib -0.018 | [2] 0.022 | encorafenib -0.061 | [3] 0.139 | [4] -0.089 | filanesib 0.078 | zotarolimus 0.005 | idasanutlin 0.022 | alisertib -0.035 | [5] 0.013 | gefitinib 0.083 | [6] 0.298 | lapatinib -0.003 | pictilisib 0.128

MRPS18C (UniProt Q9Y3D5)
inactive: saracatinib 0.104 | sotrastaurin 0.156 | alvocidib -0.001 | Tubastatin A 0.027 | [1] 0.134 | defactinib 0.044 | rucaparib 0.018 | [2] -0.031 | encorafenib -0.045 | [3] 0.033 | [4] 0.042 | filanesib 0.113 | zotarolimus 0.008 | idasanutlin 0.134 | alisertib -0.33 | [5] -0.179 | [6] 0.024 | lapatinib 0.087 | pictilisib -0.144

MSN (UniProt P26038)
inactive: saracatinib 0.021 | sotrastaurin -0.004 | alvocidib -0.037 | Tubastatin A -0.01 | [1] 0.076 | defactinib -0.029 | rucaparib -0.026 | [2] -0.01 | encorafenib -0.006 | [3] -0.034 | [4] 0.068 | filanesib -0.032 | zotarolimus 0.03 | idasanutlin -0.022 | alisertib -0.078 | [5] 0.022 | gefitinib 0.006 | [6] -0.048 | lapatinib -0.01 | pictilisib -0.028

MRPS28 (UniProt Q9Y2Q9)
inactive: saracatinib -0.087 | sotrastaurin -0.065 | alvocidib 0.041 | Tubastatin A 0.01 | [1] -0.025 | defactinib 0.032 | rucaparib 0.022 | [2] 0.125 | encorafenib -0.027 | [3] -0.109 | [4] -0.012 | filanesib 0.036 | zotarolimus 0.062 | idasanutlin -0.118 | alisertib 0.049 | [5] -0.037 | gefitinib 0.167 | [6] -0.075 | lapatinib 0.098 | pictilisib -0.051

MYL6 isoform 2 (UniProt P60660)
inactive: saracatinib -0.024 | sotrastaurin -0.076 | alvocidib -0.016 | Tubastatin A 0.063 | [1] 0.017 | defactinib -0.023 | rucaparib -0.045 | [2] -0.031 | encorafenib -0.008 | [3] -0.015 | [4] -0.005 | filanesib -0.036 | zotarolimus 0.003 | idasanutlin -0.022 | alisertib -0.018 | [5] 0.029 | gefitinib 0.001 | [6] -0.002 | lapatinib 0.021 | pictilisib 0.011

MRPS18A isoform 2 (UniProt Q9NVS2)
inactive: saracatinib -0.28 | sotrastaurin 0 | alvocidib 0.071 | Tubastatin A 0.106 | [1] -0.009 | defactinib 0.189 | rucaparib 0.167 | [2] 0.054 | encorafenib 0.111 | [3] -0.03 | [4] -0.043 | filanesib 0.174 | zotarolimus 0.137 | idasanutlin -0.034 | alisertib -0.159 | [5] 0.045 | gefitinib -0.015 | [6] -0.066 | lapatinib -0.001 | pictilisib 0.036

MTMR6 (UniProt Q9Y217)
inactive: saracatinib 0.11 | sotrastaurin 0.016 | alvocidib -0.028 | Tubastatin A -0.001 | [1] 0.027 | defactinib -0.11 | rucaparib -0.086 | [2] 0.034 | encorafenib -0.041 | [3] -0.036 | [4] 0.109 | filanesib -0.002 | zotarolimus 0.075 | idasanutlin 0.132 | alisertib -0.112 | [5] 0.073 | gefitinib -0.07 | [6] 0.203 | lapatinib -0.016 | pictilisib 0.106

MTPN (UniProt P58546)
inactive: saracatinib -0.166 | sotrastaurin -0.023 | alvocidib -0.072 | Tubastatin A 0.117 | [1] 0.066 | defactinib -0.098 | rucaparib -0.005 | [2] 0 | encorafenib -0.051 | [3] 0.065 | [4] 0.05 | filanesib 0.098 | zotarolimus 0.074 | idasanutlin 0.004 | alisertib -0.145 | [5] -0.051 | gefitinib 0.034 | [6] -0.003 | lapatinib -0.062 | pictilisib -0.035

Random excerpt: two entries already listed.
MRPS18C (UniProt Q9Y3D5)
inactive: saracatinib 0.104 | sotrastaurin 0.156 | alvocidib -0.001 | Tubastatin A 0.027 | [1] 0.134 | defactinib 0.044 | rucaparib 0.018 | [2] -0.031 | encorafenib -0.045 | [3] 0.033 | [4] 0.042 | filanesib 0.113 | zotarolimus 0.008 | idasanutlin 0.134 | alisertib -0.33 | [5] -0.179 | [6] 0.024 | lapatinib 0.087 | pictilisib -0.144

MTMR6 (UniProt Q9Y217)
inactive: saracatinib 0.11 | sotrastaurin 0.016 | alvocidib -0.028 | Tubastatin A -0.001 | [1] 0.027 | defactinib -0.11 | rucaparib -0.086 | [2] 0.034 | encorafenib -0.041 | [3] -0.036 | [4] 0.109 | filanesib -0.002 | zotarolimus 0.075 | idasanutlin 0.132 | alisertib -0.112 | [5] 0.073 | gefitinib -0.07 | [6] 0.203 | lapatinib -0.016 | pictilisib 0.106

Remaining list, next part.

MYL6 (UniProt G3V1V0)
inactive: saracatinib 0.112 | sotrastaurin -0.013 | alvocidib 0.025 | Tubastatin A -0.201 | [1] -0.02 | defactinib 0 | rucaparib 0.082 | [2] -0.025 | encorafenib 0.047 | [3] 0.118 | filanesib -0.184 | zotarolimus -0.133 | idasanutlin 0.044 | alisertib -0.325 | [6] 0.131

MTFP1 (UniProt Q9UDX5)
inactive: saracatinib 0.034 | sotrastaurin 0.029 | alvocidib -0.01 | Tubastatin A -0.025 | [1] 0 | defactinib -0.015 | rucaparib 0.024 | [2] -0.028 | encorafenib 0.003 | [3] 0.012 | [4] -0.07 | filanesib -0.023 | zotarolimus -0.058 | idasanutlin -0.018 | alisertib -0.027 | [5] 0.011 | gefitinib 0.031 | [6] 0.09 | lapatinib -0.032 | pictilisib -0.019

MRTFB isoform 5 (UniProt Q9ULH7)
inactive: saracatinib -0.017 | sotrastaurin -0.003 | alvocidib -0.004 | Tubastatin A -0.011 | [1] -0.018 | defactinib -0.062 | rucaparib -0.04 | [2] -0.083 | encorafenib 0.012 | [3] -0.006 | [4] 0.013 | filanesib 0.003 | zotarolimus 0.013 | idasanutlin 0.027 | alisertib -0.062 | [5] 0.035 | gefitinib -0.026 | [6] -0.034 | lapatinib -0.019 | pictilisib 0.015

MSI1 (UniProt O43347)
inactive: saracatinib 0.121 | sotrastaurin 0.072 | alvocidib 0.157 | Tubastatin A -0.004 | [1] -0.009 | defactinib 0.18 | rucaparib 0.233 | [2] -0.044 | encorafenib 0.061 | [3] 0.026 | [4] 0.023 | filanesib 0.048 | zotarolimus -0.086 | idasanutlin 0.039 | alisertib -0.005 | [5] 0.01 | gefitinib -0.035 | [6] -0.048 | lapatinib -0.015 | pictilisib -0.048

MRPS35 (UniProt P82673)
inactive: saracatinib -0.18 | sotrastaurin -0.033 | Tubastatin A 0.078 | [1] -0.022 | defactinib 0.043 | rucaparib 0.071 | [2] 0.062 | encorafenib 0.039 | [3] 0.007 | [4] 0.018 | filanesib 0.024 | zotarolimus 0.051 | idasanutlin -0.168 | alisertib -0.04 | [5] 0.026 | gefitinib -0.054 | [6] -0.13 | lapatinib 0.022 | pictilisib -0.021

MRPS11 (UniProt P82912)
inactive: saracatinib 0 | sotrastaurin -0.038 | alvocidib 0.039 | Tubastatin A -0.144 | [1] -0.138 | defactinib 0.06 | rucaparib 0.048 | [2] 0.118 | encorafenib 0.003 | [3] 0.029 | [4] -0.071 | filanesib 0.119 | zotarolimus 0.041 | idasanutlin -0.199 | alisertib -0.264 | [5] 0.026 | gefitinib -0.07 | [6] 0.079 | lapatinib 0.034 | pictilisib 0.38

MRPS21 (UniProt P82921)
inactive: saracatinib -0.193 | sotrastaurin 0.036 | Tubastatin A -0.056 | [1] 0.038 | defactinib -0.075 | rucaparib -0.016 | [2] 0.127 | encorafenib 0.045 | [3] -0.075 | [4] 0.007 | filanesib 0.032 | zotarolimus 0.026 | idasanutlin -0.293 | alisertib 0.043 | [5] -0.053 | gefitinib 0.019 | [6] 0.021 | lapatinib 0.261

MRPS2 (UniProt Q9Y399)
inactive: saracatinib -0.243 | sotrastaurin -0.145 | Tubastatin A 0.036 | [1] -0.021 | defactinib 0.034 | rucaparib 0.104 | [2] 0.035 | encorafenib 0.084 | [3] -0.088 | [4] -0.052 | filanesib -0.05 | zotarolimus -0.02 | idasanutlin -0.054 | alisertib -0.19 | [5] 0.005 | gefitinib -0.036 | [6] 0.006 | lapatinib 0.071 | pictilisib -0.015
